PubChem BioAssay AID1159584 | Peter MacCallum Cancer Centre – 2016
In all, the deposit lists about 18,000 reagents; shown is a random part of them. Further read-outs or replicates are left out here. Reagent sequences are not shown. Not given: the amount of reagent, the time to read-out.

- Assay: 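Knock-downs that harm CDH1-null cells more than parental MCF10A cells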 (primary screen)
- Cell system: human MCF10A breast epithelial cells, parental and CDH1-null
- Knock-down reagent: siRNA against human genes
- Read-out: 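Cell viability by CellTiter-Glo ATP luminescence, each line scaled to the mean of mock wells across plates, then CDH1-null over parental ratio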
- Reading the numbers: CDH1-null / parental viability ratio: higher = CDH1-null cells survive relatively better than parental; CDH1-null viability vs mock: higher = more viable CDH1-null cells

gene	CDH1-null / parental viability ratio	CDH1-null viability vs mock (fraction of mock)
B4GAT1	0.97	0.76
PCLAF	0.7	0.65
RFXAP	1.04	0.78
BRAT1	0.73	0.69
JPH1	1.06	0.68
STAM2	0.92	1.09
CDRT4	0.86	0.57
METTL13	0.91	0.96
HPD	0.93	0.79
ST6GALNAC5	1.01	1.08
OSTC	0.8	0.66
BMPR2	1.04	1.06
SLCO2A1	1.35	1
GAP43	1.29	0.93
NTF4	0.99	0.77
BEND3	0.71	0.54
RGS21	0.9	1.06
HSPBAP1	1	0.63
ZRANB2	0.8	0.6
LAYN	0.77	0.88
MOGAT2	0.93	0.78
LRRC46	0.79	0.67
BUD23	0.71	0.6
MOS	0.99	0.93
EML1	1.07	0.96
THPO	1.44	0.82
LSM14B	0.9	0.72
CYP11A1	0.96	0.94
